Assay results from PMC4379099 (PLoS Pathogens, 2015).
No constants are given. Whether binding was seen depends on the method and setting. Some binding calls cover weakened binding; strength is not graded here.

Protein sequences, listed by entry. Tags and fused reporters are not part of them. Residues count along the entry.
UniProt C0LGT6, residues 674-1031: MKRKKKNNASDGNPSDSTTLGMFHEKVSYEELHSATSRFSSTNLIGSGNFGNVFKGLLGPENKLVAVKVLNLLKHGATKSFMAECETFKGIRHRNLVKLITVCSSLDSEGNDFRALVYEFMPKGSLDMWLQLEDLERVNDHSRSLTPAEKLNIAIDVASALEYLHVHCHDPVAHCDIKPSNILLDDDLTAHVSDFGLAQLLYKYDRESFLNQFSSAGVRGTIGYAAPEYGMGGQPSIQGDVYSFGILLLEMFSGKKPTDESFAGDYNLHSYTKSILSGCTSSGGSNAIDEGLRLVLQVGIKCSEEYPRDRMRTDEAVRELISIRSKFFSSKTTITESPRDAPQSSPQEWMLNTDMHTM

B1: OsSERK2 intracellular domain (260-628aa) (domain or fragment, UniProt Q7XV05 260-628)
chain: AIGFAWWRRRKPEEHFFDVPAEEDPEVHLGQLKRFSLRELQVATDNFSNKNILGRGGFGKVYKGRLADGSLVAVKRLKEERTPGGELQFQTEVEMISMAVHRNLLRLRGFCMTPTERLLVYPYMANGSVASRLRERQPNDPPLEWQTRTRIALGSARGLSYLHDHCDPKIIHRDVKAANILLDEDFEAVVGDFGLAKLMDYKDTHVTTAVRGTIGHIAPEYLSTGKSSEKTDVFGYGIMLLELITGQRAFDLARLANDDDVMLLDWVKGLLKEKKVEMLVDPDLQSGFVEHEVESLIQVALLCTQGSPMDRPKMSEVVRMLEGDGLAERWEEWQKVEVVRQEAELAPRHNDWIVDSTYNLRAMELSGPR
B2: XB3 full-length (FL) (1-450aa) (protein, UniProt Q65XV2 1-450)
chain: MGHGVSCARTGDEHDFFRAAQLGDLDALAALLAADPSLARRATLYDRLSVLHIAAANGRIEVLSMFLDRGAPPDAVNRHKQTPLMLAAMHGKIDCVLKLLQADANILMFDSVHARTCLHHAAYYGHVDCLQAILAAAQTTPVADSWGFARFVNVRDDHGATPLHLAARQGRPGCVQVLLENGAIVSALTGSYGFPGSTSLHLAARSGNLDCIRKLLAWGADRLQRDSAGRIPYSVALKRNHGACAALLNPTSAEPMVWPSPLKFISELEPEAKALLEAALMEANREREKKILNGTKYSLPSPSPGDDSADDDACSEVSDTELCCICFDQACTIEVQDCGHQMCAPCTLALCCHNKPNPTTLTPPSPACPFCRGSISRLVVAQTRSACDPDKPSSLQLTRKRSRRSHNLSEGSSSFKGLPSAMGSFSKLGRGSSRMADSDSSNLDKPEHDL

Assays:
[1] = target: T1, XA21 intracellular domain (668-1025aa) (rice (Oryza longistaminata)) (UniProt Q40640); experiment: two-hybrid
T1 sequence: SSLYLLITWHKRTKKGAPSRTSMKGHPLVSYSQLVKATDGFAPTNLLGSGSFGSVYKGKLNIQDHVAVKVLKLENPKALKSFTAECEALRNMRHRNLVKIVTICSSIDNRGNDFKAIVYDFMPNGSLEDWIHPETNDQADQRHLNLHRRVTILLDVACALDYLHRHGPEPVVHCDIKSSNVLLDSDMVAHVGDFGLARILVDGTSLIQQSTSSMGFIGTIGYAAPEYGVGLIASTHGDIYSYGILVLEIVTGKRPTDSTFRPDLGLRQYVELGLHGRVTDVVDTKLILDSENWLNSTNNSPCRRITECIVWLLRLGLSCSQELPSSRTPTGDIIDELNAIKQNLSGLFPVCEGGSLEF

[2] = target: EFR intracellular domain (ID) (674-1032aa) (Arabidopsis) (UniProt C0LGT6); experiment: two-hybrid

Binder | binding [1] | binding [2]
B1 | binds | no binding
B2 | binds | no binding
